At least one read-out could not be matched to a standard name with certainty.
Columns and labels:
Assay in all cases: Flooded paddy, preemergence weed control
[1] = tested on: ECHORC (Echinochloa oryzoides); type: in vivo, Echinochloa oryzoides (Ard.) Fritsch.; conditions: rate 0.0080 kg/ha, rated 3-4 weeks after treatment, 0-9 rating scale
Protocol: (§1) Results of herbicide evaluation are expressed on a rating scale (0-9). The scale is based upon a visual observation of plant stand, vigor, malformation, size, chlorosis and overall plant appearance as compared with a control.
(§2) Preemergence herbicidal activity under flooded paddy conditions is determined as follows: plant seeds or propagating organs are planted in the top 0.5 cm of silt loam soil in 32 oz. plastic containers with a diameter of 10.5 cm and no drainage holes. Water is added to these containers and maintained at 1.5 to 3 cm above the soil surface for the duration of the experiment. […] The treated containers are placed on greenhouse benches and cared for in accordance with conventional greenhouse procedures.

[2] = tested on: CYPIR (Cyperus iria); type: in vivo; conditions: rated 3-4 weeks after treatment, 0-9 rating scale
Protocol: as §1, §2

[3] = tested on: MOOVA (Monochoria vaginalis); type: in vivo, Presl.; conditions: rate 0.0080 kg/ha, rated 3-4 weeks after treatment, 0-9 rating scale
Protocol: as §1, §2

[4] = tested on: SAGPY (Sagittaria pygmaea); type: in vivo, L.; conditions: rate 0.1250 kg/ha, rated 3-4 weeks after treatment, 0-9 rating scale
Protocol: as §1, §2

Cn1c(C(F)(F)F)cc(=O)n(-c2ccc3snc(C4OCCCS4)c3c2)c1=O (stereo not shown) [Compound 34, 1-methyl-3-[3-(1,3-oxathian-2-yl)-1,2-benzisothiazol-5-yl]-6-(trifluoromethyl)uracil]
herbicidal rating, ECHORC [1]: 5.0
herbicidal rating, ECHORC ([1]; listed as 81): 8.0
herbicidal rating, CYPIR ([2]; rate 0.0080 kg/ha): 0.0
herbicidal rating, CYPIR ([2]; rate 0.0080 kg/ha, listed as 81): 7.0
herbicidal rating, CYPIR ([2]; rate 0.1250 kg/ha): 7.5
herbicidal rating, CYPIR ([2]; rate 0.1250 kg/ha, listed as 81): 9.0
herbicidal rating, MOOVA [3]: 0.0
herbicidal rating, MOOVA ([3]; listed as 81): 7.7
herbicidal rating, SAGPY [4]: 6.0
herbicidal rating, SAGPY ([4]; listed as 81): 9.0
